Data from US20240327525A1 (VIB VZW, published 2024).
Substitutions are numbered along the chain they refer to. No constants are given. Whether binding was seen depends on the method and setting. Some entries that bind do so weakly or less than the wild type. Values belong to the binder of their own block, whether it stands above or below them.

Sequences of proteins named here, by UniProt entry; tags and fusion partners are left off. A change or cut given only in a name is not applied to a line headed by its entry.
UniProt P11717: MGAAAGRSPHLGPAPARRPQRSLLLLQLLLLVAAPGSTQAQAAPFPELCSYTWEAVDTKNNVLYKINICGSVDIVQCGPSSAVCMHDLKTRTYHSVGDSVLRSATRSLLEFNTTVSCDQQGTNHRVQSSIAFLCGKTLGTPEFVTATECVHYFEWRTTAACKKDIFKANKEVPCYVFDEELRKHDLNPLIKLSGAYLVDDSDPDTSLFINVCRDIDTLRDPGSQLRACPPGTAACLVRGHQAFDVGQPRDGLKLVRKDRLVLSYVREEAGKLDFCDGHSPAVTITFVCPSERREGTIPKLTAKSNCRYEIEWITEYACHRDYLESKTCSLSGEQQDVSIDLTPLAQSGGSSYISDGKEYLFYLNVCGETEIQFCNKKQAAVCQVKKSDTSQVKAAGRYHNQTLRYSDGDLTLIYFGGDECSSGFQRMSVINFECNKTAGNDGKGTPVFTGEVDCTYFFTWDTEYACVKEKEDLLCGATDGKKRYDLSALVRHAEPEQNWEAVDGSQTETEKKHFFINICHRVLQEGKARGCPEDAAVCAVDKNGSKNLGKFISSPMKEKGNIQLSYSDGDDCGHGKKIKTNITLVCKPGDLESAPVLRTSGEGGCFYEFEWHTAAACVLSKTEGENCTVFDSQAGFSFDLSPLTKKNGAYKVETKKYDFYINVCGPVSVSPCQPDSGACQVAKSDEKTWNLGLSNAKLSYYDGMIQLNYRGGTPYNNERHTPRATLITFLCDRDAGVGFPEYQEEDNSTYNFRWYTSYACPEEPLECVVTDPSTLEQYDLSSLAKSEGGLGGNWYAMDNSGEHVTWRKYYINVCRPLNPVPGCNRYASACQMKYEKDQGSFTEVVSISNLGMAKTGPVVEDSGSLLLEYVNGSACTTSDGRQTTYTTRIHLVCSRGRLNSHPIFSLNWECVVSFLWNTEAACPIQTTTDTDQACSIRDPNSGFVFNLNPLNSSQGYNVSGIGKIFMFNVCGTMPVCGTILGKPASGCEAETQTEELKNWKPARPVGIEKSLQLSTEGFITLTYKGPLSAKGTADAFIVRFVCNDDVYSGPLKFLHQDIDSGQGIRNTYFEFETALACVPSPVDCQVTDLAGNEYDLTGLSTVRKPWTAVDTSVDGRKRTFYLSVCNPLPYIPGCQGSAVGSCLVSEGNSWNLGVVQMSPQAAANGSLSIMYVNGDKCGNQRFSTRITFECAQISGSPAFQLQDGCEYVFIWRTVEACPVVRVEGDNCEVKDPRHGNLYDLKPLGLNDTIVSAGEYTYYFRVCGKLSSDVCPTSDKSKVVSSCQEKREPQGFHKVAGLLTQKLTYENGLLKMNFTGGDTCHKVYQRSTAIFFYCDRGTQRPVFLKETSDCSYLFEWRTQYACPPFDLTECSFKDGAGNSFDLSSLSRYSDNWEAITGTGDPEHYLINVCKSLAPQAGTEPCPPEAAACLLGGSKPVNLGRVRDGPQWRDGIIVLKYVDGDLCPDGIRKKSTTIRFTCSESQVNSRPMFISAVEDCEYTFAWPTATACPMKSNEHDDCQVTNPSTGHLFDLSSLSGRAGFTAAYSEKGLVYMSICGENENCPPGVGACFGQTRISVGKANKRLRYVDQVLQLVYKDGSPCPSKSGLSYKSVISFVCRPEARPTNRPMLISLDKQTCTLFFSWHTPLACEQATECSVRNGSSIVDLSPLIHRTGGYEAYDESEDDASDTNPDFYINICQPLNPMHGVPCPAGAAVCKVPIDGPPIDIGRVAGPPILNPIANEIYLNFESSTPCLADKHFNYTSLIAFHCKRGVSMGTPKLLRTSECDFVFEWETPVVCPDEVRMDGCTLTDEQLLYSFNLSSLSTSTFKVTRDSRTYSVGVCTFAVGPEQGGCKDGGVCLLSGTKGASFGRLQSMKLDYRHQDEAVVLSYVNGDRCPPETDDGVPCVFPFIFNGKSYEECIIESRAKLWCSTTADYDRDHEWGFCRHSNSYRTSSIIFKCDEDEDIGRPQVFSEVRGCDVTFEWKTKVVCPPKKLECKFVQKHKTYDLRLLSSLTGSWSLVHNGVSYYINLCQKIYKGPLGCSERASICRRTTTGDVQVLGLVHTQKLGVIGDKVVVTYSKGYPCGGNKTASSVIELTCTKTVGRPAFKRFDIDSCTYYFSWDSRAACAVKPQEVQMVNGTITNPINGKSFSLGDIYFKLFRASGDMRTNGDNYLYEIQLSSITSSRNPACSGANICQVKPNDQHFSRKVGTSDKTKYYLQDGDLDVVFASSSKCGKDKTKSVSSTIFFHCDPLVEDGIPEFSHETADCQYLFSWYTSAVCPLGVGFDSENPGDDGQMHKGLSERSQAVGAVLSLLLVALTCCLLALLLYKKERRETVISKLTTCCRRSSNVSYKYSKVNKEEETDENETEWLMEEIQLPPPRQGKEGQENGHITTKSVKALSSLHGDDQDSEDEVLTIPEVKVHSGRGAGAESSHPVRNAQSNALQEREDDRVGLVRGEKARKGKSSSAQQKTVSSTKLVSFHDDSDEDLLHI

Assays:
[1] = biological target: T1, human CI-M6PR domain1-3His6 (human, UniProt P11717 41-467); test: BLI (Octet Red96); biotinylated human domain1-3His6 on streptavidin sensors; 120 s association at pH 7.4 with VHH serially diluted 0-200 nM; 420 s dissociation at pH 7.4, 6.5, 6.0, 5.5 or 5.0 (one panel each)
T1 construct: Recombinant, made in HEK293 cells; Biotinylated with NHS-PEG4-biotin for BLI; unlabelled in SEC-MALLS and crystallisation; also called CI-M6PR hDom1-3His6; hDom1-3His6

[2] = biological target: T1, human CI-M6PR domain1-3His6; test: in-tandem competitive BLI
[3] = biological target: T1, human CI-M6PR domain1-3His6; test: in-tandem competitive BLI (Octet Red96); biotinylated human CI-M6PR domain1-3His6 on streptavidin sensors; VHH7 and VHH8 purified at 400 nM, the other VHHs as periplasmic extracts of E. coli; first association 30-90 s, second association 120-180 s
[4] = biological target: T1, human CI-M6PR domain1-3His6; test: in-tandem competitive BLI (Octet Red96); biotinylated human CI-M6PR domain1-3His6 on streptavidin sensors; purified VHHs at 400 nM; first association 30-90 s, second association 120-180 s
[5] = biological target: T1, human CI-M6PR domain1-3His6; test: SEC-MALLS, equal concentrations
[6] = biological target: T1, human CI-M6PR domain1-3His6; test: in-tandem competitive BLI, 400 nM
[7] = biological target: T1, human CI-M6PR domain1-3His6; test: SEC-MALLS, 1:1 and 1:3 molar mixtures, complex of 62 kDa

B1: humanized variant VHH7h3 (VHH)
VHH: DVQLVESGGGLVQPGGSLRLSCAASGIIFSDNRMDWYRQAPGKQREWVATLASYGWKTYADSVKGRFTISRDNTKNTVYLQMNSLRPEDTAVYYCKASSPVLNDIWGQGTLVTVSS
notes: Made in E. coli, IMAC purified; tag not specified
binding [1]: binds

B3: anti-CI-M6PR VHH7 (VHH)
VHH: B1 VHH with D1Q, V5Q, Q81R, R86K, L111Q
notes: Purified by IMAC, so tagged; Labelled with Alexa Fluor 488 (NHS ester) in the imaging experiments
binding [2]: binds | binding [3]: binds | binding [1]: binds | binding [4]: binds | binding [5]: binds

B5: anti-CI-M6PR VHH5 (VHH)
VHH: QVQLQESGGGLVQAGGSLKLSCAAAGRTFSRLAMGWFRQAPGKEREFVAAISENGDSIHYSDSVKGRFAVSRDNAKNTVYLQMNSLKPEDTAIYYCAADRAAYYCSGSGCYPSRAPAAASYDYWGQGTQVTVSS
binding [6]: binds | binding [4]: binds

B6: anti-CI-M6PR VHH1 (VHH)
VHH: QVQLQESGGGLVQPGGSLRLSCVASGFTFDRYWMNWLRQIPGKEIEWVSTINTGGTGTYYDDSVKGRFSISRDDAKNTLYLTMNSLKTEDTAVYYCARGATYYRGNSAIRGQGTQVTVSS
binding [6]: binds | binding [4]: binds

B7: humanized variant VHH8h2 (VHH)
VHH: DVQLVESGGGLVQPGGSLRLSCAASGRTFNTYNWGWFRQAPGKEREFVAAIRWSSSKTSYADSVKGRFTISRDNSKNTVYLQMNSLRPEDTAVYYCAASIVDFTTNPSHFGSWGQGTLVTVSS
notes: as for B1
binding [1]: binds

B9: anti-CI-M6PR VHH8 (VHH)
VHH: B7 VHH with D1Q, V5Q, P14A, A23E, S75A, V79I, R87K, L118Q
notes: as for B3
binding [2]: binds | binding [3]: binds | binding [1]: binds | binding [4]: binds | binding [7]: binds

B11: anti-CI-M6PR VHH 1H11 (VHH)
VHH: QVQLQESGGGLVQPGGSLRLSCAASGIIFSDNRMDWYRQAPGKQREWVATLASYGWKTYADSVKDRFTISRDNAKNTVNLYMNSLQPEDTAVYYCNSGQYWGQGTQVTVSS
notes: Made in E. coli (pHEN6c), IMAC purified; tag not specified
binding [6]: binds | binding [1]: binds | binding [4]: binds

Second part, the binder after the results:

binding [1]: binds
B2: humanized variant VHH7h2 (VHH)
VHH: B1 VHH with T74S
notes: as for B1

binding [1]: binds
B4: humanized variant VHH7h1 (VHH)
VHH: B1 VHH with D1E, T74S
notes: as for B1

binding [1]: binds
B8: humanized variant VHH8h1 (VHH)
VHH: B7 VHH with D1E
notes: as for B1

binding [1]: binds
B10: humanized variant VHH8h3 (VHH)
VHH: B7 VHH with P14A
notes: as for B1

binding [6]: binds | binding [3]: binds | binding [1]: binds
B12: anti-CI-M6PR VHH 1H52 (VHH)
VHH: QVQLQESGGGLVQPGGSLRLSCTASGFTWDSYVIGWFRQAPGKGREGVSCLDVDDGSIYYHDSAKGRFSISRDNAKNTVYLQMNSLKPEDTAVYYCAAVNRASMRFRRCLQVLRYDYWGQGTQVTVSS
notes: as for B11
